Assay results taken from publication PMC6499206, “Quantification of Volatile Metabolites Derived From Garlic (Allium sativum) in Human Urine” (Frontiers in Nutrition, 2019).
Read-outs that look alike come from different tables or passages of the source.

Columns and labels:
[1] = Determination of LOD and LOQ in synthetic urine (DIN 32645 calibration line method)
[2] = design: method as in PMID 27275838; settings: cited from earlier work
[3] = synthetic urine, absolute amount

SMILES | LOD [1] [ng] | LOQ [1] [ng] | LOD [1, 3] [ng] | LOQ [1, 3] [ng] | odor activity [2]
C=CCSC [AMS, allyl methyl sulfide] | 1.6 | 7.6 | 1.6 | 7.6 | garlic-like aroma
C=CC[S+](C)[O-] (stereo not drawn) [AMSO, allyl methyl sulfoxide] | 22.0 | 77.4 | 22.0 | 77.4 | neither AMSO nor AMSO2 are odor-active
C=CCS(C)(=O)=O [AMSO2, allyl methyl sulfone] | 22.4 | 78.6 | 22.4 | 78.6 | neither AMSO nor AMSO2 are odor-active
